Data as given in PubChem BioAssay AID743121 (NCATS, 2013).
The deposit covers about 26,000 reagents; below is an unselected part. Over the whole deposit, 167 (0.63%) are marked active. 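Calls are per gene from RSA p-values that are not deposited; an individual active-marked siRNA can sensitise only weakly.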 A number with no mark means an inactive call.

Screen: 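Partners whose loss is lethal together with topoisomerase I blockade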 (primary screen)
System: MDA-MB-231 cells, a human breast cancer line
Knock-down reagent: single siRNA against human genes, 20 nM siRNA (0.8 pmol per well)
Duration: 120 h (drug added 48 h after transfection, read 72 h later)
Conditions: camptothecin 20 nM (about EC30) for 72 h; vehicle 0.1% DMSO in parallel plates
Detection: 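Cell viability by ATP luminescence (CellTiter-Glo) as % of non-targeting siRNA wells, and the log2 ratio of viability without drug over viability with camptothecin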
Reading the numbers: log2 vehicle/camptothecin viability: higher = stronger sensitisation to camptothecin; viability with camptothecin and viability without drug: higher = more viable cells
Active means: 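Each gene scored by redundant siRNA activity (RSA) over its individual siRNA ratios; a gene is called active at p < 0.001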

no.	Gene	PubChem SID	log2 vehicle/camptothecin viability	viability with camptothecin (% of control)	viability without drug (% of control)
1	PIK3C3 (phosphatidylinositol 3-kinase catalytic subunit type 3)	SID164380765	-0.285	112	91.7
2	PIK3C3 (phosphatidylinositol 3-kinase catalytic subunit type 3)	SID164380766	-0.353	106	82.6
3	PIK3C3 (phosphatidylinositol 3-kinase catalytic subunit type 3)	SID164380768	-0.352	32.2	25.2
4	PIK3C3 (phosphatidylinositol 3-kinase catalytic subunit type 3)	SID164380771	-0.184	73	64.3
5	LMAN2L (lectin, mannose binding 2 like)	SID164538007	-0.18	98.4	86.9
6	LMAN2L (lectin, mannose binding 2 like)	SID164538008	-0.0559	91.9	88.4
7	LMAN2L (lectin, mannose binding 2 like)	SID164538011	0.0248	47	47.8
8	LMAN2L (lectin, mannose binding 2 like)	SID164538012	-0.155	112	101
9	FBXO46 (F-box protein 46)	SID164447809	-0.409	81.8	61.6
10	FBXO46 (F-box protein 46)	SID164447811	-0.0168	37	36.6
11	FBXO46 (F-box protein 46)	SID164447812	-0.102	95.1	88.6
12	FBXO46 (F-box protein 46)	SID164447814	-0.0631	72.2	69.1
13	HSP90AA1 (heat shock protein 90 alpha family class A member 1)	SID164370273	-0.461	57.8	42
14	HSP90AA1 (heat shock protein 90 alpha family class A member 1)	SID164370274	-0.485	59.8	42.7
15	HSP90AA1 (heat shock protein 90 alpha family class A member 1)	SID164370275	0.123	13.7	14.9
16	HSP90AA1 (heat shock protein 90 alpha family class A member 1)	SID164370279	-0.241	97.1	82.2
17	CDC25B (cell division cycle 25B)	SID164357551	-0.239	76.9	65.1
18	CDC25B (cell division cycle 25B)	SID164357552	-0.0623	50.3	48.2
19	CDC25B (cell division cycle 25B)	SID164357555	-0.499	93.8	66.3
20	CDC25B (cell division cycle 25B)	SID164357556	-0.232	36.9	31.4
21	DAPK1 (death associated protein kinase 1)	SID164361012	-0.414	71.6	53.7
22	DAPK1 (death associated protein kinase 1)	SID164361013	-0.128	61.5	56.3
23	DAPK1 (death associated protein kinase 1)	SID164361015	-0.424	57.2	42.6
24	DAPK1 (death associated protein kinase 1)	SID164361016	0.0568	89.7	93.4
25	MED14 (mediator complex subunit 14)	SID164402832	-0.267	50.4	41.9
26	MED14 (mediator complex subunit 14)	SID164402833	-0.0709	59.4	56.5
27	MED14 (mediator complex subunit 14)	SID164402834	-0.237	63.2	53.6
28	MED14 (mediator complex subunit 14)	SID164402835	-0.562	78.9	53.5
29	PPARA (peroxisome proliferator activated receptor alpha)	SID164381880	-0.231	99.2	84.5
30	PPARA (peroxisome proliferator activated receptor alpha)	SID164381882	0.044	86.4	89.1
31	PPARA (peroxisome proliferator activated receptor alpha)	SID164381883	0.799	40.2	70
32	DNAAF10 (dynein axonemal assembly factor 10)	SID164562856	-0.0414	75.5	73.3
33	DNAAF10 (dynein axonemal assembly factor 10)	SID164562857	-0.305	51.3	41.5
34	DNAAF10 (dynein axonemal assembly factor 10)	SID164562858	-0.637	84.7	54.5
35	DNAAF10 (dynein axonemal assembly factor 10)	SID164562859	0.13	51.2	56
36	MYCL (MYCL proto-oncogene, bHLH transcription factor)	SID164376656	0.262	78.2	93.8
37	MYCL (MYCL proto-oncogene, bHLH transcription factor)	SID164376657	-0.28	76.6	63.1
38	MYCL (MYCL proto-oncogene, bHLH transcription factor)	SID164376660	-0.247	103	86.4
39	MYCL (MYCL proto-oncogene, bHLH transcription factor)	SID164376662	-1.21	33.9	14.6
40	MYCL (MYCL proto-oncogene, bHLH transcription factor)	SID164376663	-0.267	78.4	65.2
41	MYCL (MYCL proto-oncogene, bHLH transcription factor)	SID164376666	0.053	82.1	85.2
42	MYCL (MYCL proto-oncogene, bHLH transcription factor)	SID164376667	-0.241	102	86.4
43	MYCL (MYCL proto-oncogene, bHLH transcription factor)	SID164376669	-0.115	102	94.3
44	KCNJ9 (potassium inwardly rectifying channel subfamily J member 9)	SID164372474	-0.17	94.1	83.7
45	KCNJ9 (potassium inwardly rectifying channel subfamily J member 9)	SID164372475	0.217	35.8	41.6
46	KCNJ9 (potassium inwardly rectifying channel subfamily J member 9)	SID164372476	0.25	27.8	33.1
47	PRSS54 (serine protease 54)	SID164592487	-0.399	84.4	64
48	PRSS54 (serine protease 54)	SID164592489	-0.655	73.8	46.9
49	PRSS54 (serine protease 54)	SID164592491	-0.0397	81.8	79.5
50	PRSS54 (serine protease 54)	SID164592492	-0.344	57.7	45.5
51	RIOK1 (RIO kinase 1)	SID164541445	-0.141	102	92.9
52	RIOK1 (RIO kinase 1)	SID164541446	-0.471	93	67.1
53	RIOK1 (RIO kinase 1)	SID164541449	-0.45	104	76.4
54	RIOK1 (RIO kinase 1)	SID164541450	-0.606	55.1	36.2
55	E2F8 (E2F transcription factor 8)	SID164532964	-0.357	85.3	66.6
56	E2F8 (E2F transcription factor 8)	SID164532965	-0.218	113	97.1
57	E2F8 (E2F transcription factor 8)	SID164532966	-0.223	121	103
58	E2F8 (E2F transcription factor 8)	SID164532967	-0.307	89.8	72.5
59	CYP1B1 (cytochrome P450 family 1 subfamily B member 1)	SID164360677	-0.329	75.3	59.9
60	CYP1B1 (cytochrome P450 family 1 subfamily B member 1)	SID164360678	0.17	93.5	105
61	CYP1B1 (cytochrome P450 family 1 subfamily B member 1)	SID164360680	-0.164	97	86.6
62	ABCA2 (ATP binding cassette subfamily A member 2)	SID164351813	-0.366	116	89.9
63	ABCA2 (ATP binding cassette subfamily A member 2)	SID164351814	0.465	18.8	25.9
64	ABCA2 (ATP binding cassette subfamily A member 2)	SID164351818	-0.271	81.2	67.3
65	ABCA2 (ATP binding cassette subfamily A member 2)	SID164351819	-0.0772	50.5	47.9
66	ACOX1 (acyl-CoA oxidase 1)	SID164352030	0.308	18.3	22.7
67	ACOX1 (acyl-CoA oxidase 1)	SID164352031	-0.401	55.7	42.1
68	ACOX1 (acyl-CoA oxidase 1)	SID164352032	0.0861	76.7	81.4
69	ACOX1 (acyl-CoA oxidase 1)	SID164352035	-0.305	117	94.7
70	BMP6 (bone morphogenetic protein 6)	SID164355429	-0.232	109	92.9
71	BMP6 (bone morphogenetic protein 6)	SID164355430	-0.32	64.3	51.5
72	BMP6 (bone morphogenetic protein 6)	SID164355434	0.0944	71.2	76.1
73	MFNG (MFNG O-fucosylpeptide 3-beta-N-acetylglucosaminyltransferase)	SID164375423	-0.0817	114	108
74	MFNG (MFNG O-fucosylpeptide 3-beta-N-acetylglucosaminyltransferase)	SID164375424	-0.196	86.2	75.2
75	MFNG (MFNG O-fucosylpeptide 3-beta-N-acetylglucosaminyltransferase)	SID164375426	-0.655	66.6	42.3
76	MFNG (MFNG O-fucosylpeptide 3-beta-N-acetylglucosaminyltransferase)	SID164375427	1.62	6.34	19.5
77	PLEKHO2 (pleckstrin homology domain containing O2)	SID164535958	-0.0546	103	99.2
78	PLEKHO2 (pleckstrin homology domain containing O2)	SID164535959	-0.134	99.7	90.8
79	PLEKHO2 (pleckstrin homology domain containing O2)	SID164535961	0.19	59.2	67.6
80	PLEKHO2 (pleckstrin homology domain containing O2)	SID164535966	-0.221	61.7	53
81	LCOR (ligand dependent nuclear receptor corepressor)	SID164545033	-0.0478	108	105
82	LCOR (ligand dependent nuclear receptor corepressor)	SID164545034	-0.218	101	86.9
83	LCOR (ligand dependent nuclear receptor corepressor)	SID164545035	-0.193	74.3	65
84	LCOR (ligand dependent nuclear receptor corepressor)	SID164545037	0.357	72.4	92.7
85	MOXD1 (monooxygenase DBH like 1)	SID164458242	0.573	33	49
86	MOXD1 (monooxygenase DBH like 1)	SID164458245	0.0951	72.8	77.8
87	MOXD1 (monooxygenase DBH like 1)	SID164458246	-0.0823	82.8	78.2
88	MOXD1 (monooxygenase DBH like 1)	SID164458248	0.0964	89.8	96

Ordered by “viability with camptothecin (% of control)” (descending): 12 of the entries above
Gene	PubChem SID	log2 vehicle/camptothecin viability	viability with camptothecin (% of control)	viability without drug (% of control)
PPARA (peroxisome proliferator activated receptor alpha)	SID164381880	-0.231	99.2	84.5
PPARA (peroxisome proliferator activated receptor alpha)	SID164381882	0.044	86.4	89.1
DNAAF10 (dynein axonemal assembly factor 10)	SID164562858	-0.637	84.7	54.5
MED14 (mediator complex subunit 14)	SID164402835	-0.562	78.9	53.5
MYCL (MYCL proto-oncogene, bHLH transcription factor)	SID164376656	0.262	78.2	93.8
MYCL (MYCL proto-oncogene, bHLH transcription factor)	SID164376657	-0.28	76.6	63.1
DNAAF10 (dynein axonemal assembly factor 10)	SID164562856	-0.0414	75.5	73.3
MED14 (mediator complex subunit 14)	SID164402834	-0.237	63.2	53.6
MED14 (mediator complex subunit 14)	SID164402833	-0.0709	59.4	56.5
DNAAF10 (dynein axonemal assembly factor 10)	SID164562857	-0.305	51.3	41.5
DNAAF10 (dynein axonemal assembly factor 10)	SID164562859	0.13	51.2	56
PPARA (peroxisome proliferator activated receptor alpha)	SID164381883	0.799	40.2	70
